Source: the supplement of paper PMC10849652
Some of the results follow.

Chains of the proteins cited; added tags and fusions are not shown. Lines headed by an entry give the natural chain unless they say otherwise; changes in a name come on top.
UniProt Q9UBX1: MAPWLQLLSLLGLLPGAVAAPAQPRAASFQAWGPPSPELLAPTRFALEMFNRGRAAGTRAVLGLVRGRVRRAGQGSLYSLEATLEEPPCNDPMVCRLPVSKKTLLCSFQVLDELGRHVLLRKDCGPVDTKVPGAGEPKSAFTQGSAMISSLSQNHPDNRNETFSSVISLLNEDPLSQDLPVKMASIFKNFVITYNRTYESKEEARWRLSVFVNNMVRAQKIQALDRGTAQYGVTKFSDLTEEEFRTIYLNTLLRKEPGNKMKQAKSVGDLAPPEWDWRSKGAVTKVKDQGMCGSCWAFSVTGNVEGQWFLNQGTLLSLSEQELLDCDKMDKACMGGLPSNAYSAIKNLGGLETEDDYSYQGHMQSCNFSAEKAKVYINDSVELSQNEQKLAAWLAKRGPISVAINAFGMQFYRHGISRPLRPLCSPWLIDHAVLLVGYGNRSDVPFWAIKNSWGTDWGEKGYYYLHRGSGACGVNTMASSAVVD
UniProt Q9Y6M4: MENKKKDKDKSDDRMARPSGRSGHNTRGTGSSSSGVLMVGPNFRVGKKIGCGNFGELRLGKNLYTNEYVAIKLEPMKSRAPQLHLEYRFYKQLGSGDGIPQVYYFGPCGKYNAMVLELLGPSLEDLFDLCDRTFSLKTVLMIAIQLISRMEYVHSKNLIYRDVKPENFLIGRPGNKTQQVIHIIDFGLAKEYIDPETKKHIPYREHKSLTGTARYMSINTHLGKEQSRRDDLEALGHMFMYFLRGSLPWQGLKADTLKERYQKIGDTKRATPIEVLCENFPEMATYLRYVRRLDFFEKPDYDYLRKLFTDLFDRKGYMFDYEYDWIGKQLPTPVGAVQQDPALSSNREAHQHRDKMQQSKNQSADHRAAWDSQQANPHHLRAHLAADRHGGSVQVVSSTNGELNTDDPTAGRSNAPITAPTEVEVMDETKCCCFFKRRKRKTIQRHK
UniProt Q9Y2S2: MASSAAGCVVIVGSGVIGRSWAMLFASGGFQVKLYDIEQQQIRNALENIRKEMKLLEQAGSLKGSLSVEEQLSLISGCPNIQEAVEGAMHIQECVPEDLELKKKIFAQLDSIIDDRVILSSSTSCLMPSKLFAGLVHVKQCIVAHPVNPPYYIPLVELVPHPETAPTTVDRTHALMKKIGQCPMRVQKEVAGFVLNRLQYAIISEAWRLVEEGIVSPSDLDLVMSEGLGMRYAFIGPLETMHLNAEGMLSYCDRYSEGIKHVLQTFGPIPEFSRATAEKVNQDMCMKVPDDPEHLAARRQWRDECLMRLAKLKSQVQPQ
UniProt P48729: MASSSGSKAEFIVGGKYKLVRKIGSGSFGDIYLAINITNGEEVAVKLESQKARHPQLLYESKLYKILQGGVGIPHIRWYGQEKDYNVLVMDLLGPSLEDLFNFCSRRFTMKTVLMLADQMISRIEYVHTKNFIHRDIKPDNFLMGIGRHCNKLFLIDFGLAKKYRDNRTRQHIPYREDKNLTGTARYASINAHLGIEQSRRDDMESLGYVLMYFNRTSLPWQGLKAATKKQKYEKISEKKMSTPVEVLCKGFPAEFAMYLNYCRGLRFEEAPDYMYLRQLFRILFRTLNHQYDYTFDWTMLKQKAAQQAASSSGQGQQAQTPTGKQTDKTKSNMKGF
UniProt Q9H175: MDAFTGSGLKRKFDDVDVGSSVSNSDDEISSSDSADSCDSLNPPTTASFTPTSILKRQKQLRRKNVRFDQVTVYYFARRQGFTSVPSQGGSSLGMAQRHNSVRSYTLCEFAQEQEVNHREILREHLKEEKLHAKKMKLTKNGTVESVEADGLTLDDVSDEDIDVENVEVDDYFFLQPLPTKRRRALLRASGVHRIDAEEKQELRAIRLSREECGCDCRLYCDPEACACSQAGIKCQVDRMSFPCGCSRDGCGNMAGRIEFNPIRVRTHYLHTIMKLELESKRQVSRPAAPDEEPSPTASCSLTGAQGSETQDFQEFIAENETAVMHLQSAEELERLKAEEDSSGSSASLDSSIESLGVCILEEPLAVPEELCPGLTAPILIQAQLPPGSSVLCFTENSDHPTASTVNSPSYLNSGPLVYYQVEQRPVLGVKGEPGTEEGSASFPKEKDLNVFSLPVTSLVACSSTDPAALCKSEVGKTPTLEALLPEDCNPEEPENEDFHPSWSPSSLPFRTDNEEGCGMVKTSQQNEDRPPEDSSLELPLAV
UniProt Q6UUV7: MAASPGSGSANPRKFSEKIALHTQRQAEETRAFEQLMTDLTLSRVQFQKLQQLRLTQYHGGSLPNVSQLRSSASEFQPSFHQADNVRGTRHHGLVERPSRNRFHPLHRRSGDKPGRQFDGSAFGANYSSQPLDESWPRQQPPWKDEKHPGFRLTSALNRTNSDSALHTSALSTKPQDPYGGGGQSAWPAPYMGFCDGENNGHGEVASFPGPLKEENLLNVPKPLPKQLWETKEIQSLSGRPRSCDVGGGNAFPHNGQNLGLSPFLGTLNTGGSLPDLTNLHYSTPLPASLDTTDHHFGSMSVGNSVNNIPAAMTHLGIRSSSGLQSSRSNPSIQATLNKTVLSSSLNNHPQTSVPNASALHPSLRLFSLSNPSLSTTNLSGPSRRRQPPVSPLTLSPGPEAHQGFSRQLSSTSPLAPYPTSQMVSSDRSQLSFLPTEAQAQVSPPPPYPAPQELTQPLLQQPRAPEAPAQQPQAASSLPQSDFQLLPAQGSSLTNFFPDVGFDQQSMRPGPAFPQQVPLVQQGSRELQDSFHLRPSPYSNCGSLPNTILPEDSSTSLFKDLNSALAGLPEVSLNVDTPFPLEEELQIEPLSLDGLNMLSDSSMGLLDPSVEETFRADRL
UniProt Q53TN4: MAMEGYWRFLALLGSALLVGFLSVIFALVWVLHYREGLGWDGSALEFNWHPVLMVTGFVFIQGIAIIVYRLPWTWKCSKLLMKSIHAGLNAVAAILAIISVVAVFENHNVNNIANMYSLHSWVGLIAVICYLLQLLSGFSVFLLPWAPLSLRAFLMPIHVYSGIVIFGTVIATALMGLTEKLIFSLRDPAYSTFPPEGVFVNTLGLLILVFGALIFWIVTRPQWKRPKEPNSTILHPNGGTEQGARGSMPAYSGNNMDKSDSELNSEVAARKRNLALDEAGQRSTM
UniProt O95715: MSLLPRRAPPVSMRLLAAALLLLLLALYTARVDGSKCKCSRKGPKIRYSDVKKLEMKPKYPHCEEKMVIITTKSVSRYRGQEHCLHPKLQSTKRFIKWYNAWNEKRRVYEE
UniProt Q9NQC7: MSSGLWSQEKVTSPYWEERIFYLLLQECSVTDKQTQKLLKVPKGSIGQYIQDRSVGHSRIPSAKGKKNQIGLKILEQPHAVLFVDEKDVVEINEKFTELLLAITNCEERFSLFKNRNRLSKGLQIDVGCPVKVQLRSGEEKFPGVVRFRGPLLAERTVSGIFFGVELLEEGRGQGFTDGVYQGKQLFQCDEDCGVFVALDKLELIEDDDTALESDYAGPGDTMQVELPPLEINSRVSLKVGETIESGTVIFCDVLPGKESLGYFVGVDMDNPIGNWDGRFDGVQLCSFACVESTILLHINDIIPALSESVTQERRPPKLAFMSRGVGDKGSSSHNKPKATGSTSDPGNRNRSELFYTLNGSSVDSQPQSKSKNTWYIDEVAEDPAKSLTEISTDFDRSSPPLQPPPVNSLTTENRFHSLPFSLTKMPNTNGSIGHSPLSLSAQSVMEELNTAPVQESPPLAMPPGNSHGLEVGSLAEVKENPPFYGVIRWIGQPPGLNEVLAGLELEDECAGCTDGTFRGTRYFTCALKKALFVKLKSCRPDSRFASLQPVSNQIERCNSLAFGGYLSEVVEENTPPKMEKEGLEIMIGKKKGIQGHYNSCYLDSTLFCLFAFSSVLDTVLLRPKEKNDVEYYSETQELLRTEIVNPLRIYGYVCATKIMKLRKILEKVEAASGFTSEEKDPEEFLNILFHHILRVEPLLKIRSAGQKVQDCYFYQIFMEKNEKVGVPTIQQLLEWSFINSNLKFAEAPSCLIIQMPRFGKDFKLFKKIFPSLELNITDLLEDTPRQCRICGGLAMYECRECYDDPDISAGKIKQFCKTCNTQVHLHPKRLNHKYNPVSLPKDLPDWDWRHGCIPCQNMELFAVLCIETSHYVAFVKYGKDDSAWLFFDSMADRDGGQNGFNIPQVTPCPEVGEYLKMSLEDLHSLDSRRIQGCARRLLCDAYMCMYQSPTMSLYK
UniProt Q9GZU7: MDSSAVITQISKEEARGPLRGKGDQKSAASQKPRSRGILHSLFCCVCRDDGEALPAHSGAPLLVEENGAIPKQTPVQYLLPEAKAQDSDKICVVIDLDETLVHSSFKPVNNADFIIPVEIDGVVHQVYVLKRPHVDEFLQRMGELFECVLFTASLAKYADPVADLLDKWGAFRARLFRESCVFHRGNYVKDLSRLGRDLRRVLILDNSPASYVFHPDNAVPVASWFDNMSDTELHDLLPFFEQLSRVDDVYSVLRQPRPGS
UniProt Q6UUV9: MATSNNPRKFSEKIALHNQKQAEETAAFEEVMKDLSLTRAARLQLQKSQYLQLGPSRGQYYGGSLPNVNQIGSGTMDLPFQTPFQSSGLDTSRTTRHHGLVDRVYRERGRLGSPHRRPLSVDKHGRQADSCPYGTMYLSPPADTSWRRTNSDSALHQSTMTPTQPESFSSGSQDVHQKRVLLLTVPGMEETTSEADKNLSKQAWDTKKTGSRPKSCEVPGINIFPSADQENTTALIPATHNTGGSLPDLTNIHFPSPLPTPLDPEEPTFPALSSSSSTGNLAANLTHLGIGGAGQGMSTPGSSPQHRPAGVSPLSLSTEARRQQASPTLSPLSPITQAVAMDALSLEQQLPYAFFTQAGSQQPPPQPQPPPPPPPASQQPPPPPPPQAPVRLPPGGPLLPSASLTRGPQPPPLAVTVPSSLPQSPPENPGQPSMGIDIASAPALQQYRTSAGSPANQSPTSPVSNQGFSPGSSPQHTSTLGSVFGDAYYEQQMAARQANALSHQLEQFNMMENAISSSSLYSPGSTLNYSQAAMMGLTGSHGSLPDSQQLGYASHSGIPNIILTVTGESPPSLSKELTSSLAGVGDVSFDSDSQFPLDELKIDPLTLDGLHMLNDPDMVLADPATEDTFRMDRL
UniProt Q16527: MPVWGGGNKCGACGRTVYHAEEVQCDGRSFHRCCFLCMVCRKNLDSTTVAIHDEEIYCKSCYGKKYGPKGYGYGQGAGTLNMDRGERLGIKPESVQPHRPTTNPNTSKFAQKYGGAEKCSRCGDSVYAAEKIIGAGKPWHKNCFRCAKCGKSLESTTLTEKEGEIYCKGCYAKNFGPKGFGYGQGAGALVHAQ
UniProt P49447: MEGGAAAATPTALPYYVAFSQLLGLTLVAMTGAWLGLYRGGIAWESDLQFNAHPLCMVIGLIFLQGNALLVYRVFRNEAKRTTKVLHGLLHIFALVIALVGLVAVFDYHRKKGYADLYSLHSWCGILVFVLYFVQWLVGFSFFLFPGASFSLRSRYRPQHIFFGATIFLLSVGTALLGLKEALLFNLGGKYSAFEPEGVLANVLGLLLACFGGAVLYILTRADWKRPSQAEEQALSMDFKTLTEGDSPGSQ
UniProt O95476: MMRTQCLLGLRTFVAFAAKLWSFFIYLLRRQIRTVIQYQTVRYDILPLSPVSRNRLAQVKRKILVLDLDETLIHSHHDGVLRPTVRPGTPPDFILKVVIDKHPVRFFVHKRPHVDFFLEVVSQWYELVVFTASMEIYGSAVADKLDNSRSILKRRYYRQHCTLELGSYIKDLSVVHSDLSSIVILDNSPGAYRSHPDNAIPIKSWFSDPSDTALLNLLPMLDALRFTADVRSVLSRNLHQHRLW
UniProt P43155: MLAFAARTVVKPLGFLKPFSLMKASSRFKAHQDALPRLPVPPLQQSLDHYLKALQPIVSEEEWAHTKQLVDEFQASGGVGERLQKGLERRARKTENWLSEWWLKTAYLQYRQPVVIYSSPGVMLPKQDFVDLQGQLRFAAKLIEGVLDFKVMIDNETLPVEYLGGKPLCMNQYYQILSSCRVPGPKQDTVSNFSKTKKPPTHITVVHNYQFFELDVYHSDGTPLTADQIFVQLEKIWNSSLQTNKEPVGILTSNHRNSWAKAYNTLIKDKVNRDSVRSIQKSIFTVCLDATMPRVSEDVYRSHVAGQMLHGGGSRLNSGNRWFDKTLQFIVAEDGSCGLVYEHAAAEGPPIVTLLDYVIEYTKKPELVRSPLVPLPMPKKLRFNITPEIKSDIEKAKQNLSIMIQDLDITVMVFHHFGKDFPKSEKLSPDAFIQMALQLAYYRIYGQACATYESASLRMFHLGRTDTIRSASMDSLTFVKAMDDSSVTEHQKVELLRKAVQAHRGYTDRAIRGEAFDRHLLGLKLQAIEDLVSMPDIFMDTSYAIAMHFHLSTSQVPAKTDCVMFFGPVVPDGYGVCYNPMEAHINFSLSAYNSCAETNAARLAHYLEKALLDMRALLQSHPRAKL

Tests used:
Experiment in all cases: log2 fold change, soluble protein after heating vs DMSO (PISA); higher = thermal stabilisation; K562 lysate, 10 uM; active = over 0.2 and 3.5 SD of the protein, either way, in both replicates (recomputed)
dasatinib = compound: Cc1nc(Nc2ncc(C(=O)Nc3c(C)cccc3Cl)s2)cc(N2CCN(CCO)CC2)n1 [dasatinib]
Outline: (§1)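 Soluble protein was defined as the supernatant remaining after 21,000xg for 90 min, following pooling of heated aliquots and adjustment to 0.5% NP-40 at 4°C. Before that, crude K562 extract at 1 mg/mL protein in PBS pH 7.4 with 1 mM MgCl2 was treated with 10 μM compound for 30 min and heated for 3 min across 48°C-58°C. Quantification used TMTpro 16plex LC-MS/MS with channel sums equalised, and values are log-two fold changes in thermal stability relative to solvent controls from duplicates.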

[1] = compound: Cn1cc(-c2ccc3c(c2)CCN3C(=O)Cc2cccc(C(F)(F)F)c2)c2c(N)ncnc21
Outline: as §1

[2] = compound: NC1(c2ccc(-c3nc4ccn5c(=O)[nH]nc5c4cc3-c3ccccc3)cc2)CCC1
Outline: as §1

vorinostat = compound: O=C(CCCCCCC(=O)Nc1ccccc1)NO [vorinostat]
Outline: as §1

silmitasertib = compound: O=C(O)c1ccc2c(c1)nc(Nc1cccc(Cl)c1)c1ccncc12 [silmitasertib]
Outline: as §1

entospletinib = compound: c1cn2cc(-c3ccc4cn[nH]c4c3)nc(Nc3ccc(N4CCOCC4)cc3)c2n1 [entospletinib]
Outline: as §1

[3] = compound: NC(=O)c1cnc(N[C@@H]2CCCC[C@@H]2N)nc1Nc1cccc(-n2nccn2)c1
Outline: as §1

quisinostat = compound: Cn1cc(CNCC2CCN(c3ncc(C(=O)NO)cn3)CC2)c2ccccc21 [quisinostat]
Outline: as §1

[4] = compound: NC(=O)Nc1cc(-c2cccc(F)c2)sc1C(=O)N[C@H]1CCCNC1
Outline: as §1

[5] = compound: NCC(=O)Nc1ccc(-n2nc(C(F)(F)F)cc2-c2ccc3c(ccc4ccccc43)c2)cc1
Outline: as §1

[6] = compound: O=C1NC(=O)C(c2cnc3ccccn23)=C1c1cn2c3c(cc(F)cc13)CN(C(=O)N1CCCCC1)CC2
Outline: as §1

Measured: log2 fold change

CTSS (UniProt P25774)
inactive: dasatinib 0.029 | [1] -0.006 | [2] -0.243 | vorinostat 0.159 | silmitasertib -0.052 | entospletinib -0.002

CTSF (UniProt Q9UBX1)
inactive: [2] 0.268 | vorinostat 0 | silmitasertib 0.104

CSNK1G1 (UniProt Q9HCP0)
inactive: dasatinib -0.028 | [1] -0.083 | [3] -0.058 | [2] -0.043 | vorinostat 0.203 | silmitasertib -0.105 | entospletinib 0.106

CSNK1G3 isoform 4 (UniProt Q9Y6M4)
inactive: [3] 0.083

Reprinted at random: 2 records from the list
CSNK1G3 isoform 4 (UniProt Q9Y6M4)
inactive: [3] 0.083

CSNK1G1 (UniProt Q9HCP0)
inactive: dasatinib -0.028 | [1] -0.083 | [3] -0.058 | [2] -0.043 | vorinostat 0.203 | silmitasertib -0.105 | entospletinib 0.106

Later entries

CRYL1 (UniProt Q9Y2S2)
inactive: dasatinib -0.184 | [1] -0.078 | quisinostat -0.125 | [4] -0.034 | [3] -0.164 | [2] 0.177 | [5] -0.245 | vorinostat -0.271 | silmitasertib -0.02 | [6] 0.116

CSNK1A1 isoform 3 (UniProt P48729)
inactive: dasatinib 0.048 | [1] -0.183

CSRNP2 (UniProt Q9H175)
inactive: dasatinib -0.23 | [1] -0.128 | [2] -0.059 | vorinostat -0.02 | silmitasertib 0.097

CS (UniProt F8VU34)
inactive: dasatinib -0.089 | [1] -0.021 | [3] 0.08 | [2] 0.114 | vorinostat 0.053 | silmitasertib 0.008

CROCC2 (UniProt H7BZ55)
inactive: dasatinib 0.089 | [1] 0 | quisinostat -0.077 | [4] 0.006 | [3] 0.052 | [2] 0.025 | vorinostat 0.094 | silmitasertib -0.001 | [6] 0.044 | entospletinib 0.009

CRTC3 (UniProt Q6UUV7)
inactive: dasatinib -0.297 | [1] -0.033 | quisinostat 0.005 | [4] -0.049 | [2] 0.059 | [5] 0.01 | vorinostat -0.018 | silmitasertib -0.034 | [6] -0.064 | entospletinib -0.002

CYBRD1 (UniProt Q53TN4)
inactive: dasatinib 0.177 | [1] -0.014 | quisinostat 0 | [4] 0.05 | [3] 0.032 | [2] -0.152 | [5] 0.128 | vorinostat 0.078 | silmitasertib 0.121 | [6] 0.017

CXCL14 (UniProt O95715)
inactive: [5] 0.24 | entospletinib 0.033

CYLD (UniProt Q9NQC7)
inactive: quisinostat -0.101 | [4] 0.056 | [2] -0.078 | vorinostat -0.242 | silmitasertib 0.273 | [6] 0.06

CSGALNACT2 (UniProt Q8N6G5)
inactive: dasatinib -0.094 | [1] 0.013 | quisinostat -0.216 | [4] 0.065 | [3] 0.005 | [2] -0.1 | vorinostat 0.151 | silmitasertib -0.04 | [6] 0.027

CTDSP1 (UniProt Q9GZU7)
inactive: dasatinib -0.086 | [1] -0.019 | quisinostat 0.03 | [4] 0.056 | [6] 0.017

CRTC1 (UniProt Q6UUV9)
inactive: dasatinib 0.036 | [1] -0.019 | quisinostat -0.062 | [4] 0.048 | [3] 0.121 | [2] -0.033 | [5] 0.202 | vorinostat 0.03 | silmitasertib -0.005 | [6] 0 | entospletinib -0.121

CSNK2A1, A0A2R8Y4D6
inactive: [3] 0.085

CSRP2 (UniProt Q16527)
inactive: quisinostat -0.012 | [4] 0.068 | [6] 0.016 | entospletinib -0.132

CYB561 (UniProt P49447)
inactive: dasatinib 0.028 | [1] -0.004 | quisinostat -0.184 | [4] 0.141 | [3] 0.039 | [2] 0.066 | [5] 0.065 | vorinostat -0.085 | silmitasertib -0.203 | [6] -0.008 | entospletinib -0.05

CTDNEP1 (UniProt O95476)
inactive: dasatinib 0.045 | [1] 0.013 | quisinostat -0.069 | [4] -0.002 | [6] -0.057

CRAT (UniProt P43155)
inactive: dasatinib -0.074 | [1] -0.012 | quisinostat -0.023 | [4] 0.048 | [3] -0.056 | [2] -0.116 | [5] -0.127 | vorinostat -0.089 | silmitasertib -0.034 | [6] -0.056
